Source: paper doi:10.1101/2024.12.18.629081
These are yes or no findings as the source states them, for the method shown. Binding seen in cells or lysates may run through a third protein. Some entries that bind do so weakly or less than the wild type.

Chains of the proteins cited; added tags and fusions are not shown. Lines headed by an entry give the natural chain unless they say otherwise; changes in a name come on top. A line that says so, or that is headed by a name, gives the form on record, which may keep a tag or linker.
Rluc-Cdc42 (human CDC42, cell division control protein 42 homolog, with N-terminal Rluc tag) (P60953, form named): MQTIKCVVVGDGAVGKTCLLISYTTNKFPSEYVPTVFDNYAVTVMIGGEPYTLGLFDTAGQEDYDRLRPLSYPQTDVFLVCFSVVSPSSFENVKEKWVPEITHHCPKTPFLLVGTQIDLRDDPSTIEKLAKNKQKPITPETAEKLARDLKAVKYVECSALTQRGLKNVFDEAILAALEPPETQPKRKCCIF
GFP-PAK1 (human p21-activated kinase 1 with N-terminal GFP tag) (Q13153-2, form named): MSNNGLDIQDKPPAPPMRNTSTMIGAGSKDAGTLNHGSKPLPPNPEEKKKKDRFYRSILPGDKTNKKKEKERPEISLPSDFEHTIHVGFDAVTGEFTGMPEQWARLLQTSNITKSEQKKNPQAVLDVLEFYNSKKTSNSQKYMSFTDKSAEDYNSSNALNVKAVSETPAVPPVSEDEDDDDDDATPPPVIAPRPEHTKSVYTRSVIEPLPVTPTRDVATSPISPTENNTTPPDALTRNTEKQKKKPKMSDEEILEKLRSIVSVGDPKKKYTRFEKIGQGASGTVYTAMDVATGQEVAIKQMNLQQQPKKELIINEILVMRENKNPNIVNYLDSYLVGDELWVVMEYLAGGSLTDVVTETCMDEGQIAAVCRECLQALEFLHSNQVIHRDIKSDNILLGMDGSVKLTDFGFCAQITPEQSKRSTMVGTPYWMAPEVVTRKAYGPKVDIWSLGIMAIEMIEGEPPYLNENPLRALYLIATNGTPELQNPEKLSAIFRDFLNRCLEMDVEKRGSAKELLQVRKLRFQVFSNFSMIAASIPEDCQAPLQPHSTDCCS

Target: Rluc-Cdc42 (human CDC42, cell division control protein 42 homolog, with N-terminal Rluc tag) (human) (UniProt P60953)
Experiment: FRET or BRET

binding: binds
Substance: GFP-PAK1 (human p21-activated kinase 1 with N-terminal GFP tag) (from UniProt Q13153-2 1-553)
